The other results are listed elsewhere or left out.
tested on: T1, CTL2-GFP (C. trachomatis L2/434/Bu, GFP-expressing); parameters: species or system HeLa; Intracellular C. trachomatis growth in HeLa cells, bulk GFP fluorescence relative to DMSO; conditions: bulk GFP, single well; 28.5 h, 10 µM; inhibitor
T1 construct: L2/434/Bu, GFP-expressing

Compound | % of control remaining [%]
CCc1nc2ccccc2n1CC(=O)N(Cc1cccnc1)C1CC1 [CBK304064] | 100.155
COc1ccc(NC(=O)[C@@H]2C=CCN2C(=O)C2CC2)cc1 [CBK284277] | 67.1066
OCC1CCCN1c1cncc(-c2cccc3ccccc23)n1 (stereo not shown) [CBK065509] | 144.531
COc1cc(C(=O)Nc2ccc3[nH]ccc3c2)cc(OC)c1OC [CBK159696] | 117.725
CCOC(=O)N1CCC(NC(=O)N2CCN(c3cc(C(F)(F)F)ccn3)CC2)CC1 [CBK162353] | 113.719
Cc1[nH]c2ccccc2c1C(=O)CSc1nccn1Cc1ccccc1 [CBK297905] | 154.529
O=C(NCc1ccc(F)cc1)c1ccc(Cn2ccnc2)cc1 [CBK297719] | 128.454
O=C(CCCn1cc([N+](=O)[O-])cn1)Nc1cc(C(F)(F)F)ccc1Cl [CBK293987] | 127.663
O=S(=O)(c1ccccc1C(F)(F)F)n1ccc2c(N3CCNCC3)nccc21 [CBK045605C] | 58.2521
COC(=O)c1ccc(C2N(Cc3ccccc3)CCN2Cc2ccccc2)cc1 [CBK265201] | 100
Fc1ccc(CN2C3CCCC2CC(NC(=S)NC2CCCCC2)C3)cc1 (stereo not shown) [CBK121172] | 128.344
N#CCCn1cc(C(=O)N2CCOCC2)c(-c2ccc(F)cc2)n1 [CBK306189] | 106.355
CS(=O)(=O)Nc1cc2ccccc2c(-c2ccsc2)n1 [CBK085748] | 147.707
Cc1c(-c2ccc(Cl)cc2Cl)nc2ccccc2c1C(=O)NCc1ccc(S(N)(=O)=O)cc1 [CBK265387] | 110.493
Cc1ccc(C2=CCN(C(=O)c3cccc(S(=O)(=O)N(C)C)c3)CC2)cc1 [CBK298273] | 101.381
CC1(c2ccc(Br)cc2)NC(=O)CS1 (stereo not shown) [CBK018962] | 120.71
NC(=O)C(NCc1ccccc1)c1ccc(Cl)cc1 (stereo not shown) [CBK012748] | 127.021
C=Cn1ncc(CN2CCC(O)(c3ccccc3C)CC2)c1C [CBK282582] | 101.219
Cn1c(COc2ccc(Cl)cc2Cl)nnc1SCC(=O)N1c2ccccc2SC2C=CC=CC21 (stereo not shown) [CBK268359] | 158.907
O=S(=O)(c1ccc(-c2ccccc2)cc1)N1CCCN(Cc2cccc(F)c2F)CC1 [CBK063111] | 100.318
COc1cc(C)c(NC(=O)c2cnc(-c3ccc(F)cc3)c(-c3ccncc3)c2)cc1OC [CBK036575] | 115.035
COC(=O)C1(Cc2ccccc2-c2ccncc2)CCOCC1 [CBK284709] | 126.399
O=C(CCS(=O)(=O)c1cc(Cl)ccc1Cl)OCC(=O)c1ccccc1 [CBK261256] | 100
COc1cccc(C(=O)Nc2ccc(O)cc2C(=O)O)c1 [CBK268662] | 112.94
Cc1cn(CC(=O)N2CCN(c3ncccn3)CC2)c(=O)[nH]c1=O [CBK144513] | 121.2
O=C(NCCCn1ccnc1)c1cccs1 [CBK261740] | 99.4947

Compound | % of control remaining [%]
O=C(O)C1CCN(C2CC(=O)N(Cc3ccccc3)C2=O)CC1 (stereo not shown) [CBK287206] | 127.609
O=C(O)CCC(=O)N1N=C2C(=Cc3ccco3)CCCC2C1c1ccco1 (stereo not shown) [CBK296069] | 123.658
COc1ccccc1CC(=O)Nc1ccc(OCC(=O)O)cc1 [CBK264194] | 126.805
C=CCn1c(Cc2csc(NC(=O)c3ccc(OC)c(OC)c3)n2)n[nH]c1=S [CBK295324] | 180.016
Cc1nccc(-c2cccc(NC3CCN(c4ccc5c(c4)OCCO5)CC3)c2)n1 [CBK286439] | 113.977
O=C(NCc1ccco1)[C@@H]1C=CCN1C(=O)NCc1ccccc1 [CBK284293] | 135.934
CCOC(=O)c1sc2ncccc2c1N [CBK115371] | 111.239
Cc1cccc(N2CCN(C(=O)C3C4CCC(O4)C3C(=O)O)CC2)c1C (stereo not shown) [CBK287044] | 131.482
Nc1ncc(-c2cccc(CO)c2)nc1N1CCOCC1 [CBK063406] | 209.208
COC(=O)c1ccc2c(=O)n(CC(C)C)c(SC)nc2c1 [CBK306042] | 148.469
O=C(CS(=O)(=O)c1ccccc1)Nc1cccc2nsnc12 [CBK267949] | 127.243
Oc1cc(C(F)(F)F)nc(N2CCCC2)n1 [CBK002389] | 116.515
CCn1nc(C)c(-c2cncn2CCN(C)C2CCCC2)c1C [CBK281569] | 93.6933
CCC1CCCCN1C(=O)c1cccc(C)c1C (stereo not shown) [CBK081501] | 152.692
OCC1CCCN1c1nccnc1-c1ccccc1F (stereo not shown) [CBK038037] | 95.5194
O=C(O)/C=C/C(=O)NCCc1c[nH]c2ccccc12 [CBK287222] | 112.42
Cc1ccc2cc(CN(CCNC(=O)OC(C)(C)C)C(=O)NCc3ccccc3)c(=O)[nH]c2c1C [CBK132097] | 99.0205
Cn1c(C(O)c2ccccc2)n[nH]c1=S (stereo not shown) [CBK012984] | 96.1671
Cc1nn(CCS(C)(=O)=O)c(C)c1CN1CCOC(c2ccccc2)C1 (stereo not shown) [CBK306162] | 139.533
O=C(O)c1cc(-c2ccc(/C=C3\NC(=O)N(Cc4ccccc4)C3=O)o2)ccc1Cl [CBK078117] | 115.092
CS(=O)(=O)N1CCc2cc(-c3cn4ccccc4n3)ccc21 [CBK285190] | 128.23
Cn1cnc([N+](=O)[O-])c1Oc1ccccc1OCc1ccccc1 [CBK002747] | 96.1947
O=C(CC(NC1CCCC1)C(=O)O)Nc1cccc(Cl)c1 (stereo not shown) [CBK266831] | 177.445
O=C(NC(=S)N1CCN(CCN2C(=O)c3cccc4cccc(c34)C2=O)CC1)c1ccc2c(c1)OCO2 [CBK263577] | 100
CC(NC(=O)C1CC(=O)OC1(C)C)c1ccc2c(c1)CCCO2 (stereo not shown) [CBK281613] | 148.536
CCOc1ccc(-c2nc(C#N)c(NCCN3CCOCC3)o2)cc1 [CBK265867] | 102.804

Reprinted at random: two compounds from above, in no set order.
Compound | % of control remaining [%]
CCC1CCCCN1C(=O)c1cccc(C)c1C (stereo not shown) [CBK081501] | 152.692
O=C(O)c1cc(-c2ccc(/C=C3\NC(=O)N(Cc4ccccc4)C3=O)o2)ccc1Cl [CBK078117] | 115.092
